Test results from article PMC10115834.
No constants are given. Whether binding was seen depends on the method and setting. In cells and extracts the contact can be indirect. Some entries that bind do so weakly or less than the wild type.

Protein sequences, listed by entry. Tags and fused reporters are not part of them.
UniProt P35222: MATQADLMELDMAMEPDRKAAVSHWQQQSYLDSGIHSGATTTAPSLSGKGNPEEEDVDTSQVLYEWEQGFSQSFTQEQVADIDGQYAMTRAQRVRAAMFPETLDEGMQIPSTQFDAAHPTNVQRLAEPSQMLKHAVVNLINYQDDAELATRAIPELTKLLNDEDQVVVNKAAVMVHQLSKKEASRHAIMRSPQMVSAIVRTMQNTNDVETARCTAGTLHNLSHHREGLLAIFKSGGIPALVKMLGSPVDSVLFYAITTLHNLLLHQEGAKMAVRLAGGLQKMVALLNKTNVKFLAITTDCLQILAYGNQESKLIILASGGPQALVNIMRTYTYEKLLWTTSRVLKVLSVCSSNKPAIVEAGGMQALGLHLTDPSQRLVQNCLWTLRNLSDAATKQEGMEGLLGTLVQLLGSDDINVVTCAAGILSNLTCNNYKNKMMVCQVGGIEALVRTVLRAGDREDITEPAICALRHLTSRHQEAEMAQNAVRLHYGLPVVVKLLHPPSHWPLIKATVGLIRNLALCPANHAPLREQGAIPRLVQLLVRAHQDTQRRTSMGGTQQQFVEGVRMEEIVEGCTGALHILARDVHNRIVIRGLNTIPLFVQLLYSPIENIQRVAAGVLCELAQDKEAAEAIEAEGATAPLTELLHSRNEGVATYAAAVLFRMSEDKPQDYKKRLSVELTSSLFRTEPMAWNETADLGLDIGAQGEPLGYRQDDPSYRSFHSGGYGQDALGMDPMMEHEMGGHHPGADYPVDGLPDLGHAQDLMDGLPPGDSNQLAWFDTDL
UniProt Q9Y265: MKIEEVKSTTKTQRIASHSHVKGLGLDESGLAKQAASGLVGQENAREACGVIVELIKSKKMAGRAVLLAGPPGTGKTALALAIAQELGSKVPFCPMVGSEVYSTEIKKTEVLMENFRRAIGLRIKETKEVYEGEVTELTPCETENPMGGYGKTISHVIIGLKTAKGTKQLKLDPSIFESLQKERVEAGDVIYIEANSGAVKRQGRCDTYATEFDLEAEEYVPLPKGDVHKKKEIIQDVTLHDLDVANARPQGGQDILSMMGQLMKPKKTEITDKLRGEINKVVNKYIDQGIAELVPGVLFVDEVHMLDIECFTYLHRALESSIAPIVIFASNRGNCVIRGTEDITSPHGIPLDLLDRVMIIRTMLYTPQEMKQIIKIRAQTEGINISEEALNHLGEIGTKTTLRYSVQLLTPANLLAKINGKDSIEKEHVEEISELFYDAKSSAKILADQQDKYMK

Target: β-catenin1 (CTNNB1) (UniProt P35222)
Test: co-IP; lysate of transfected cells (50 mM Tris-HCl pH 7.4, 150 mM NaCl, 10% glycerol, 1 mM EDTA, 0.5% NP-40); antibody and protein A/G beads for 2 h, three washes, immunoblot; RUVBL1 or CTNNB1 precipitated with anti-his or anti-Flag

- binding: binds
Substance: RuvB-like protein 1 (RUVBL1) (from UniProt Q9Y265 1-456)
